Drawing on PubChem BioAssay AID493014 (National Center for Advancing Translational Sciences (NCATS), 2011), this text covers AC50 for 65 compounds.

Molecules are shown by their SMILES. The list shows a part of the results. Further columns of the screen follow, without active or inactive calls. Most of these compounds were active or inconclusive in the main read-out, so they are no random draw. Words in brackets tell the shape of the fitted curve; partial curves, single points and poor fits give uncertain potencies.

The assay can be described thus: qHTS Assay to Find Inhibitors of Chronic Active B-Cell Receptor Signaling. Particulars: ABC-DLBCL IkBa-CBG/CBR reporter, luminescence ratio (green luciferase fused to IkBa over red control in TMD8 lymphoma cells), 4 h. An outline of the steps:
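TMD8 human ABC-DLBCL cells with doxycycline-inducible IκBα–green luciferase fusion and unfused red luciferase, in 0.5% FBS medium; compounds up to 46 uM, 4 h at 37C. Green/red luminescence ratio, filter-overlap corrected, fitted to concentration-response curves.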
In general terms: Quantitative high-throughput screening tests each substance at several concentrations.

The mark [1] stands for this setting: measured here: CBR red luminescence, cell number.
The mark [2] stands for this setting: measured here: IkBa-CBG green luminescence.

For the compound `CCC(C)n1c(=S)[nH]c2ccccc2c1=O` (stereo not drawn), the AC50 – broadly, the midpoint of the concentration-response curve, whichever way the signal moves – under setting [1] was 0.891 µM [rising, full curve, poor fit].
Turning to `COc1ccccc1-n1c(CNC(=O)c2ccco2)nnc1SCC(=O)Nc1ccc(F)cc1`, under setting [1], the AC50 was 3.98 µM [falling, full curve, poor fit].
On to `CSc1ccccc1NC(=O)COC(=O)c1ccccc1O`, for which the AC50 under setting [1] was 10 µM [falling, partial curve].
For `COc1ccccc1-n1c(SCC(=O)NCc2ccc3c(c2)OCO3)nc2cc([N+](=O)[O-])ccc21`, the AC50 under setting [1] was 29.1 µM [falling, single point].
As for `O=C(Nc1ccc(-c2noc(CCc3ccccc3)n2)cc1)c1ccco1`, under setting [1], the AC50 is 2.59 µM [rising, full curve].
Take `Cn1c(=O)n(C)c2cc(NS(=O)(=O)c3ccc(Cl)s3)ccc21`: the AC50 under setting [1] was 22.4 µM [rising, partial curve, poor fit].
Consider `COc1cccc(NC(=O)CN(C)C(C)C(=O)NC(=O)NC2CCCCC2)c1` (stereo not drawn), for which the AC50 under setting [1] was 29.1 µM [rising, single point].
Take `Cc1nc(Nc2ccccc2)[nH]c(=O)c1CCC(C)C`: under setting [1], the AC50 was 9.2 µM [rising, single point].
On to `CCN(CC)c1ccc(/C=C2/C(=O)ON=C2C)cc1`, for which the AC50 under setting [1] is 2.59 µM [falling, full curve].
On to `Cc1ccccc1/C=N/Nc1nc2ccccc2[nH]1`, for which the AC50 under setting [1] is 11.2 µM [falling, partial curve, poor fit].
On to `Cc1cccc(NC(=S)NCc2ccc3[nH]c4c(c3c2)CCCC4)c1`, for which, under setting [2], the AC50 is 29.1 µM [falling, single point].
On to `Cc1ccc2nc(N3CCOCC3)c(C=O)cc2c1`, for which, under setting [1], the AC50 was 12.6 µM [rising, single point].
As to `Nc1ccc2[nH]ncc2c1`, the AC50 under setting [1] is 10 µM [falling, partial curve].
As to `O=C(CN1C(=O)C(=O)N(Cc2ccccc2)C1=O)Nc1cc(Cl)cc(Cl)c1`, the AC50 under setting [1] is 17.8 µM [rising, partial curve] and the AC50 under setting [2] is 35.5 µM [falling, single point].
On to `CCOc1ccc(NC(=O)CSc2nc(=O)n(Cc3ccccn3)c3c2CCC3)cc1`, for which, under setting [1], the AC50 is 20.6 µM [falling, partial curve].
In the case of `Cc1ccc(C)c(NC(=O)c2ncn[nH]2)c1`, under setting [1], the AC50 is 4.47 µM [falling, single point].
In the case of `Cc1ccc(C)c(SCC(=O)Nc2ccc(S(=O)(=O)Nc3ncccn3)cc2)c1`, the AC50 under setting [1] was 8.91 µM [rising, partial curve, poor fit].
Regarding `Cn1c(CNc2nc3ccccc3n2CCN2CCCCC2)nc2ccccc21`, the AC50 is 25.1 µM [falling, single point] under setting [1] and 35.5 µM [rising, partial curve, poor fit] under setting [2].
Regarding `CCCn1c(NC(=O)CN2C(=O)NC3(CCCCC3)C2=O)nc2ccccc21`, the AC50 under setting [1] was 23.1 µM [falling, partial curve, poor fit].
As for `COc1ccc(-c2cn3cccc(C)c3n2)cc1Br`, the AC50 under setting [1] is 9.2 µM [rising, partial curve, poor fit].
Take `O=C(Nc1cc2c(cc1Cl)OCCCO2)c1ccc(F)cc1`: the AC50 under setting [1] is 6.51 µM [rising, single point].
For the compound `CCC/C(O)=C1\C(=O)CCCC1=NCCCCCC(=O)O`, the AC50 under setting [1] was 3.66 µM [falling, single point].
Turning to `CCCc1ccc(OCc2ccc(C(=O)N3CCCC3)o2)cc1`, the AC50 under setting [1] is 35.5 µM [falling, single point].
In the case of `Cc1ccc(CCSCC(=O)O)cn1`, under setting [1], the AC50 is 16.4 µM [falling, single point].
For `CCOc1ccccc1N1CCN(C(=O)CCNS(=O)(=O)c2ccccc2F)CC1`, the AC50 under setting [1] is 0.731 µM [falling, partial curve, poor fit].
On to `COc1cc2cc(CN(Cc3cccnc3)C(=O)Nc3ccccc3F)c(=O)[nH]c2cc1OC`, for which the concentration at half-maximal activity (AC50) under setting [1] was 3.98 µM [falling, full curve, poor fit] and the AC50 under setting [2] was 2.82 µM [rising, full curve].
For `C/C(CCC(C)C)=N\Nc1ccc(S(N)(=O)=O)cc1[N+](=O)[O-]`, the AC50 under setting [1] was 12.6 µM [rising, single point].
For `Cc1ccccc1N1CCN(C2CCCN(C(=O)c3cn4c(C)cccc4n3)C2)CC1` (stereo not drawn), under setting [1], the AC50 is 35.5 µM [falling, single point].
On the same count and under the same terms, then `CCCCCOC(=O)c1c(N)n(CCOC)c2nc3ccccc3nc12`, with 7.94 µM [falling, partial curve].
Still for that read-out and setting: then `O=C(OCC(=O)N1CCc2ccccc21)c1cc(S(=O)(=O)N2CCOCC2)ccc1F`, with 29.1 µM [falling, single point]; and `C/C(=N\NC(=O)c1ccccc1O)C1CC1`, with 2 µM [falling, full curve]; and `CCCn1c(NC(=S)Nc2ccccc2)nc2ccccc21`, with 0.92 µM [rising, full curve, poor fit].
Turning to `COc1ccc(NC(=O)c2ccc(N(C)S(C)(=O)=O)cc2)cc1OC`, the AC50 under setting [1] was 4.61 µM [falling, single point].
Same read-out and setting: then `O=C(NCCc1ccco1)c1nn(Cc2ccccc2)c(=O)c2ccccc12`, with 11.2 µM [falling, partial curve, poor fit]; and `O=C(COC(=O)c1ccc(O)cc1)Nc1ccccc1-c1ccccc1`, with 29.1 µM [falling, single point].
The same measure, in the same setting: then `CC(Nc1nc(N2CCCCC2)nc2ccccc12)c1ccccc1` (stereo not drawn), with 29.1 µM [falling, single point]; and `Cc1cc(C)c[n+](-c2nc3ccccc3nc2C(=C=[N-])C#N)c1`, with 29.1 µM [rising, single point].
Take `Cc1ccc(S(=O)(=O)N(C(=O)c2ccco2)c2cc3sc(=O)oc3c3ccccc23)cc1`: under setting [1], the AC50 was 18.4 µM [falling, single point].
For `CCOCCn1c(C)c(C(=O)OCC)c2cc(O)c3ccccc3c21`, the AC50 under setting [1] was 1.46 µM [rising, partial curve].
On the same count and under the same terms, then `CCCN(Cc1ccc(C)cc1)C(=O)c1ccc(CNS(=O)(=O)c2ccc(C(C)=O)cc2)cc1`, with 14.6 µM [falling, single point].
In the case of `O=[N+]([O-])c1ccc(C2Oc3ccccc3C3CC(c4ccccc4)=NN32)s1` (stereo not drawn), the AC50 under setting [1] was 14.6 µM [falling, single point].
In the case of `Cc1c(NC(=O)c2ccc(COc3ccc4ccccc4c3)o2)c(=O)n(-c2ccccc2)n1C`, the concentration at half-maximal activity (AC50) under setting [1] is 22.4 µM [falling, single point].
Same read-out and setting: then `COc1cc(NC(=O)CN2C(=O)NC(c3ccccc3)(c3ccccc3)C2=O)cc(OC)c1`, with 22.4 µM [falling, single point]; and `COc1ccccc1C(=O)NCC(=O)N/N=C/c1cc(Br)ccc1OCc1ccccc1`, with 0.259 µM [rising, full curve, poor fit]; and `O=C(N/N=C/c1cn(-c2ccccc2)nc1-c1cccs1)c1ccccc1F`, with 13 µM [falling, partial curve, poor fit].
`CCCC(C)c1nnc(NC(=O)C(=O)OCC)s1` (stereo not drawn): under setting [1], the AC50 is 0.1 µM [rising, full curve, poor fit].
Turning to `Oc1ccc(C[C@H]2CNCCN2CCc2cc(C(F)(F)F)cc(C(F)(F)F)c2)cc1`, under setting [1], the AC50 was 23.1 µM [falling, partial curve, poor fit].
Consider `NC(=O)c1ccsc1NC(=O)CSc1ncnc2sccc12`, for which, under setting [1], the AC50 is 1.64 µM [falling, full curve, poor fit].
Consider `COCCC(=O)N1CCC(Oc2ccc(C(=O)NCCC3=CCCCC3)cc2)CC1`, for which, under setting [1], the AC50 was 3.98 µM [rising, single point].
Take `CCOC(=O)C1C(=O)C=C(c2ccc(NS(C)(=O)=O)cc2)CC1c1ccco1` (stereo not drawn): the AC50 under setting [1] was 31.6 µM [falling, single point].
As for `O=C(CCC1CCCN(C(=O)CCCc2ccccc2)C1)N1CCN(c2ccccn2)CC1` (stereo not drawn), under setting [1], the AC50 is 22.4 µM [rising, single point].
The same measure, in the same setting: then `c1ccc2c(c1)nc(Nc1ccc3c(c1)OCO3)c1nnnn12`, with 8.2 µM [falling, partial curve].
On the same count and under the same terms, then `O=[N+]([O-])CC(=Nc1ccc(Cl)cc1)N/N=C\c1oc(O)c2ccccc12`, with 1.84 µM [falling, full curve, poor fit].
Regarding `COC(=O)CSc1nc2ccc(N)cc2s1`, the AC50 under setting [2] is 11.2 µM [rising, partial curve, poor fit].
With `CC(C)SCc1nc2ccccc2[nH]1`, the AC50 under setting [2] was 29.1 µM [falling, single point].
Consider `O=C(COn1nnc2ccccc21)NCC1CCCCC1`, for which the AC50 under setting [1] is 3.26 µM [rising, full curve, poor fit].
Consider `CCOc1ccc(OCCCCN2CCCC2)cc1`, for which, under setting [1], the AC50 was 2.06 µM [rising, partial curve, poor fit].
For `COc1ccc(-c2cc(C(=O)N3CCCC3)no2)cc1OC`, the AC50 under setting [1] is 31.6 µM [falling, single point].
With `CC(C)[C@H](N)c1cn([C@@H](CO)C(=O)N2CCNCC2)nn1`, the AC50 under setting [1] is 2.06 µM [falling, partial curve, poor fit].
For the compound `O=C(COC(=O)c1ccc(Cl)c(S(=O)(=O)N2CCCC2)c1)NCc1cccs1`, the concentration at half-maximal activity (AC50) under setting [1] was 35.5 µM [rising, single point].
Regarding `COc1ccc(OCCNS(=O)(=O)c2ccc3oc4ccccc4c3c2)cc1`, the AC50 under setting [1] was 17.8 µM [rising, partial curve, poor fit].
With `Nc1c(C(=O)c2ccccc2)sc2nsc(SCCN3CCCC3)c12`, under setting [1], the AC50 is 7.08 µM [falling, full curve].
The same measure, in the same setting: then `Oc1ccccc1C1CC(c2cccs2)=NC(c2cccc(Br)c2)N1` (stereo not drawn), with 7.94 µM [falling, partial curve, poor fit]; and `C=CCN(c1nc(C)cc(OC)n1)S(=O)(=O)c1ccc(C)cc1`, with 11.2 µM [rising, partial curve, poor fit].
Same read-out and setting: then `Brc1ccc(-c2nc(-c3ccncc3)no2)o1`, with 0.259 µM [rising, full curve, poor fit].
